These results are taken from US20110110852A1.

The experiment concerns the target DR5 on cells, O14763. The experiment can be described thus: DISC analysis on BJAB cells, co-purification with antibody-DR5 complexes, Western blot. As to conditions: remark: other sources report otherwise. In general terms: Immunoblotting shows a protein as a band on a membrane.

Results are given in words; binding and its absence hold for the method and conditions named. Binding seen in cells or lysates may run through a third protein. Some binding calls cover weakened binding; strength is not graded here.

B1: caspase 8, Q14790 1-479 (enzyme, UniProt Q14790 1-479, looked up)
chain: MDFSRNLYDIGEQLDSEDLASLKFLSLDYIPQRKQEPIKDALMLFQRLQEKRMLEESNLSFLKELLFRINRLDLLITYLNTRKEEMERELQTPGRAQISAYRVMLYQISEEVSRSELRSFKFLLQEEISKCKLDDDMNLLDIFIEMEKRVILGEGKLDILKRVCAQINKSLLKIINDYEEFSKERSSSLEGSPDEFSNGEELCGVMTISDSPREQDSESQTLDKVYQMKSKPRGYCLIINNHNFAKAREKVPKLHSIRDRNGTHLDAGALTTTFEELHFEIKPHDDCTVEQIYEILKIYQLMDHSNMDCFICCILSHGDKGIIYGTDGQEAPIYELTSQFTGLKCPSLAGKPKVFFIQACQGDNYQKGIPVETDSEEQPYLEMDLSSPQTRYIPDEADFLLGMATVNNCVSYRNPAEGTWYIQSLCQSLRERCPRGDDILTILTEVNYEVSNKDDKKNMGKQMPQPTFTLRKKLVFPSD
With B1, the binding entry is reported as “binds”.
